# Results published in PubChem BioAssay AID2685 (National Center for Advancing Translational Sciences (NCATS), 2010).
# Out of some 320,000 compounds screened, about 2,100 (0.66%) were called active. This list was built around the results that the source calls inconclusive (neither active nor inactive); the mix of calls is not that of the screen. Calls follow the shape of the dose curve; as a rule, active = well fitted inhibition curve with a large enough effect in the signal ratio, with a control signal flat (not every such curve was filed as active); inconclusive = small, poorly fitted or top-dose-only effect, or effect the other way, or a change in a side signal; inactive = flat fitted curve, though single readings scatter; the % refers to the signal ratio. A potency beside an inconclusive call is a rough fit, not a confirmed value.
# Experiment: qHTS Assay for Lipid Storage Modulators in Drosophila S3 Cells
# Settings: BODIPY lipid droplet fluorescence, 18-24 h, cells fed with added oleic acid; lipid storage change, negative = inhibition: at 46.1 µM (top of the series) unless noted
# Method in brief: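 Laser-scanning cytometry quantifies lipid droplet accumulation (500–530 nm total intensity; droplet/cell object ratio) in oleic acid-fed (400 uM added) Drosophila S3 cells treated with a concentration series. 20 uM Triacsin C defined 100% inhibition.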
# % is scaled to controls: 0 for no effect and ±100 for the full control effect; potency is read from the fitted curve at half-maximal effect.
Structure (SMILES),"lipid storage change, negative = inhibition",Potency
COc1cc(/C=C(\C#N)C(=O)NCc2ccccc2)ccc1OCc1ccc(C(=O)O)cc1,inconclusive: -32.1%,–
O=C(Nc1cccc(F)c1)C1C2C=CC3(CN(CCCN4CCOCC4)C(=O)C13)O2 (configuration not stated),inconclusive: -27.7%,–
COc1cc(C(=O)Nc2nnc(C)s2)c([N+](=O)[O-])cc1OC,inconclusive: -10.3%,–
Cc1ccc2cc(C(c3nnnn3C3CCCC3)N(Cc3ccco3)Cc3cccs3)c(=O)[nH]c2c1 (configuration not stated),inconclusive: 249%,–
COc1cc(NC(=O)C/C(C)=N/NC(=O)c2ccccn2)c(OC)cc1Cl,–,"inconclusive: 29.1 µM [activator, single point]"
CCc1ccccc1N(C(C)=O)c1nc(CCl)cs1,inconclusive: 25.5% [at 9.22 µM],–
CN(C)CCCNC(=O)/C=C/c1ccc2c(c1)OCO2,inconclusive: 5.01%,–
O=C(N/N=C\c1ccc(OC(=O)c2cccs2)cc1)c1ccc(Cl)cc1,inconclusive: 35.6%,–
CN(CC(=O)NC1CCCCCC1)S(=O)(=O)c1ccc(Br)cc1,inconclusive: 7.34%,–
CS(=O)(=O)N(CC(=O)N1CCOCC1)c1ccc2c3c(cccc13)CC2,inconclusive: -11.4%,–
O=C(CSc1nc2ccccc2s1)N1c2ccccc2Sc2ccccc21,inactive,–
Cc1ccc(C(C)NC(=O)c2ccncc2)c(C)c1 (configuration not stated),–,"inconclusive: 29.1 µM [falling, single point]"
COc1cccc(CNC(=O)CN2C(=O)CSc3ccc(S(=O)(=O)N4CCCC4)cc32)c1,inconclusive: -8.09%,–
Cc1ccc(S(=O)(=O)CC(=O)Nc2nc(-c3ccccc3)cs2)cc1,inactive,–
O=C(Nc1cccc(NC(=O)c2sc3ccccc3c2Cl)c1)c1ccco1,inconclusive: -59.4%,–
O=C(Nc1ccc(F)cc1)c1nc[nH]c1C(=O)Nc1ccc([N+](=O)[O-])cc1,–,"inconclusive: 1.3 µM [falling, partial curve, poor fit]"
CCCCNC(=O)c1ccc(CNS(=O)(=O)c2ccc(Br)cc2)cc1,inconclusive: 36.4%,–
O=C(OCC(=O)N1CCCC1=O)c1cc(S(=O)(=O)N2CCOCC2)ccc1F,–,"inconclusive: 29.1 µM [falling, single point]"
Cn1c(SCC(=O)c2ccccc2)nnc1-c1ccncc1,inconclusive: -4.3%,–
COC(=O)[C@H](Cc1ccccc1)NC(=O)N(C)Cc1ccccc1,–,"inconclusive: 0.164 µM [falling, full curve, poor fit]"
COc1ccc(Cc2nnc3c4cnn(C)c4ncn23)cc1,inconclusive: 35.1%,–
CN1C(=S)SC(/[N+]([O-])=C\c2ccco2)C1(C)C (configuration not stated),inconclusive: 46.6%,–

# Two entries from above, as tab-separated lines.
Structure (SMILES)	lipid storage change, negative = inhibition	Potency
O=C(Nc1cccc(NC(=O)c2sc3ccccc3c2Cl)c1)c1ccco1	inconclusive: -59.4%	–
O=C(Nc1ccc(F)cc1)c1nc[nH]c1C(=O)Nc1ccc([N+](=O)[O-])cc1	–	inconclusive: 1.3 µM [falling, partial curve, poor fit]
